These are yes or no findings as the source states them, for the method shown. In cells and extracts the contact can be indirect. Here binding means that the protein was enriched with, or labelled near, the bait; the list need not be complete. For some of these results: No binding means not detected with the bait. Sequences can lack the tags named with a protein. One block for each binder: values may come before it.
Columns and labels:
[1] = target: T1, Dsn1-His-Flag (budding yeast), P40568; experiment: affinity purification with mass spectrometry; Dsn1-Flag immunoprecipitated on antibody-conjugated Dyna-beads from lysate of cells arrested in G1 with α-factor (5 µM); buffer H0.15 (25 mM Hepes pH 8.0, 150 mM KCl, 0.1% NP-40); eluted with 3XFlag peptide; MudPIT; triplicate, no-tag controls; conditions: remark: other sources report otherwise
T1 chain: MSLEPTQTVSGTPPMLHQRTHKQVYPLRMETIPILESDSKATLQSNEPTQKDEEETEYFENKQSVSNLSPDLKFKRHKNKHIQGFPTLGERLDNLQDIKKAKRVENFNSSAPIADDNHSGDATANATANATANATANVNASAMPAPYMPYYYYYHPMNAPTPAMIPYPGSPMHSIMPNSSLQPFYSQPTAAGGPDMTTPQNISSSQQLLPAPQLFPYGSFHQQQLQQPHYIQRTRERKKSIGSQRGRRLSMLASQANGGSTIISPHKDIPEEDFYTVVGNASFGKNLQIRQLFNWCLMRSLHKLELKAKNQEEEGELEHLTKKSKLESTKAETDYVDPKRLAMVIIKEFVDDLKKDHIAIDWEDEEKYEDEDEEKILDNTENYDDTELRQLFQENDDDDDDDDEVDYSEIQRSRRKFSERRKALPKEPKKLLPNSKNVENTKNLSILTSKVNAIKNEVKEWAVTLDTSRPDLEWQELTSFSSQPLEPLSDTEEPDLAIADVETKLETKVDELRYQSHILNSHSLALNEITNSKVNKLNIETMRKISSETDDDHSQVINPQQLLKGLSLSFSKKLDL

[2] = target: T1, Dsn1-His-Flag (budding yeast), P40568; experiment: affinity purification with mass spectrometry; Dsn1-Flag immunoprecipitated on antibody-conjugated Dyna-beads from lysate of cdc15-1 cells arrested in anaphase (37°C for 3 h); buffer H0.15 (25 mM Hepes pH 8.0, 150 mM KCl, 0.1% NP-40); eluted with 3XFlag peptide; MudPIT; triplicate, no-tag controls; conditions: remark: other sources report otherwise
[3] = target: T2, Dsn1-His-Flag (budding yeast) (UniProt P40568); experiment: affinity purification with mass spectrometry; Dsn1-Flag immunoprecipitated on antibody-conjugated Dyna-beads from lysate of cells arrested in G1 with α-factor (5 µM); buffer H0.15 (25 mM Hepes pH 8.0, 150 mM KCl, 0.1% NP-40); eluted with 3XFlag peptide; MudPIT; triplicate, no-tag controls
T2 sequence: T1 chain

[4] = target: T2, Dsn1-His-Flag (budding yeast); experiment: affinity purification with mass spectrometry; Dsn1-Flag immunoprecipitated on antibody-conjugated Dyna-beads from lysate of cdc15-1 cells arrested in anaphase (37°C for 3 h); buffer H0.15 (25 mM Hepes pH 8.0, 150 mM KCl, 0.1% NP-40); eluted with 3XFlag peptide; MudPIT; triplicate, no-tag controls

binding [1]: no binding
binding [2]: no binding
B1: Glc7p catalytic subunit of the protein phosphatase type 1 (PP1) complex, P32598 1-312 (enzyme)
chain: MDSQPVDVDNIIDRLLEVRGSKPGQQVDLEENEIRYLCSKARSIFIKQPILLELEAPIKICGDIHGQYYDLLRLFEYGGFPPESNYLFLGDYVDRGKQSLETICLLLAYKIKYPENFFILRGNHECASINRIYGFYDECKRRYNIKLWKTFTDCFNCLPIAAIIDEKIFCMHGGLSPDLNSMEQIRRVMRPTDIPDVGLLCDLLWSDPDKDIVGWSENDRGVSFTFGPDVVNRFLQKQDMELICRAHQVVEDGYEFFSKRQLVTLFSAPNYCGEFDNAGAMMSVDESLLCSFQILKPAQKSLPRQAGGRKKK

binding [4]: binds
B2: Fin1 (Filaments in between nuclei) (protein, UniProt Q03898 1-291)
chain: MSNKSNRRSLRDIGNTIGRNNIPSDKDNVFVRLSMSPLRTTSQKEFLKPPMRISPNKTDGMKHSIQVTPRRIMSPECLKGYVSKETQSLDRPQFKNSNKNVKIQNSDHITNIIFPTSPTKLTFSNENKIGGDGSLTRIRARFKNGLMSPERIQQQQQQHILPSDAKSNTDLCSNTELKDAPFENDLPRAKLKGKNLLVELKKEEEDVGNGIESLTKSNTKLNSMLANEGKIHKASFQKSVKFKLPDNIVTEETVELKEIKDLLLQMLRRQREIESRLSNIELQLTEIPKHK
binding [3]: no binding (only cells arrested in G1 with α factor)

Source: publication PMC6605801
